Test results reported in publication doi:10.1101/523670.
These are yes or no findings as the source states them, for the method shown.

Biological target: GST-Chm7 (S. cerevisiae (budding yeast))
Experiment: pull-down

- binding: no binding
B1: Heh1 WH domain (heh1(735-834)) (domain or fragment, UniProt Q03707 735-834)
chain: IEELVTQTMEKLKFQKIKSMSDPKENAYLSIVQLRDIFLSDIVDLKYKNQLWSEVVKYLEHNNSNIKSNLTEIRGEIMKCWEWIGPMELNEPKDSAENKI
